From US20230089966A1, “METHOD FOR DIFFERENTIATION OF BRAIN MURAL CELLS FROM HUMAN PLURIPOTENT STEM CELLS” (WISCONSIN ALUMNI RESEARCH FOUNDATION, priority 2021, published 2023)
Results are given in words; binding and its absence hold for the method and conditions named. Binding seen in cells or lysates may run through a third protein. Some entries that bind do so weakly or less than the wild type. Tags and fused reporters may be left off the sequences shown.

By UniProt entry, the sequences of proteins in these tests, tags left out.
UniProt Q06330: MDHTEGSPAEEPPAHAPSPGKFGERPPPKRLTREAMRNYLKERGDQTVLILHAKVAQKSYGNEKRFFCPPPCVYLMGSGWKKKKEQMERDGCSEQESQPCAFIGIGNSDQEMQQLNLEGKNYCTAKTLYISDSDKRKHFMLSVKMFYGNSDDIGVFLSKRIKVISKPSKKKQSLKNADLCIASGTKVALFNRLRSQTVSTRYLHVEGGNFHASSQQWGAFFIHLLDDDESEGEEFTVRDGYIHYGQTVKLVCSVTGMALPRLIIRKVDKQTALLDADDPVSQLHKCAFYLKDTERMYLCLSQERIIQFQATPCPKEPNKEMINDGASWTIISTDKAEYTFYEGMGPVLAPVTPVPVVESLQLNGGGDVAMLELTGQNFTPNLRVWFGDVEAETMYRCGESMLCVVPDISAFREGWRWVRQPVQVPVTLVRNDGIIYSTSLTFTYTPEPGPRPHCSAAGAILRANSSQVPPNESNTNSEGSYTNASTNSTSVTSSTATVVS

Target: RBPJ (human) (UniProt Q06330)
Experiment: co-immunoprecipitation with Notch3 antibody from lysate of N3ICD-GFP-transduced cells, anti-RBPJ Western blot

B1: human Notch3 intracellular domain (N3ICD), overexpressed from pWPI-N3ICD (N3ICD-GFP lentivirus) (receptor)
chain: MVMVARRKREHSTLWFPEGFSLHKDVASGHKGRREPVGQDALGMKNMAKGESLMGEVATDWMDTECPEAKRLKVEEPGMGAEEAVDCRQWTQHHLVAADIRVAPAMALTPPQGDADADGMDVNVRGPDGFTPLMLASFCGGALEPMPTEEDEADDTSASIISDLICQGAQLGARTDRTGETALHLAARYARADAAKRLLDAGADTNAQDHSGRTPLHTAVTADAQGVFQILIRNRSTDLDARMADGSTALILAARLAVEGMVEELIASHADVNAVDELGKSALHWAAAVNNVEATLALLKNGANKDMQDSKEETPLFLAAREGSYEAAKLLLDHFANREITDHLDRLPRDVAQERLHQDIVRLLDQPSGPRSPPGPHGLGPLLCPPGAFLPGLKAAQSGSKKSRRPPGKAGLGPQGPRGRGKKLTLACPGPLADSSVTLSPVDSLDSPRPFGGPPASPGGFPLEGPYAAATATAVSLAQLGGPGRAGLGRQPPGGCVLSLGLLNPVAVPLDWARLPPPAPPGPSFLLPLAPGPQLLNPGTPVSPQERPPPYLAVPGHGEEYPAAGAHSSPPKARFLRVPSEHPYLTPSPESPEHWASPSPPSLSDWSESTPSPATATGAMATTTGALPAQPLPLSVPSSLAQAQTQLGPQPEVTPKRQVLA
  binding: binds
